Paper PMC9772882
No constants are given. Whether binding was seen depends on the method and setting. In cells and extracts the contact can be indirect. Binding calls can cover weak binding; strength is not graded here. Tags and fused reporters may be left off the sequences shown.

T1: ameloblastin-FLAG fusion protein (full length ameloblastin with a C-terminal FLAG tag) (UniProt O55189)
T1 sequence: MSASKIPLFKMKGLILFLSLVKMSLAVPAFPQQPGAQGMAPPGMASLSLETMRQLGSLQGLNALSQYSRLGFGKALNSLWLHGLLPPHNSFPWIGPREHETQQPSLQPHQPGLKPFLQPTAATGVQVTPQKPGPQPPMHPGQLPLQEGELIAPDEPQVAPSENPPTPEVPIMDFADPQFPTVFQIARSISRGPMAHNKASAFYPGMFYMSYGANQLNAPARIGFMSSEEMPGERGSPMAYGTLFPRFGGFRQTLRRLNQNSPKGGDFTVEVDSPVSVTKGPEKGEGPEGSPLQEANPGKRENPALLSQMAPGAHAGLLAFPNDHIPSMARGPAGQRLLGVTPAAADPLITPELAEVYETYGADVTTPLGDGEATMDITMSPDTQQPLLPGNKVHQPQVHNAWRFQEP

B1: ameloblastin-FLAG fusion protein (full length ameloblastin with a C-terminal FLAG tag) (protein, UniProt O55189 1-407)
chain: T1 sequence

Columns and labels:
[1] = biological target: T1, ameloblastin-FLAG fusion protein (full length ameloblastin with a C-terminal FLAG tag); test: co-IP; anti-FLAG agarose holds ameloblastin-FLAG, overnight, modified PBS with 2 mM CaCl2, 1 mM MgCl2, pH 4.5; Western blot with anti-CBP for amelogenin
[2] = biological target: T1, ameloblastin-FLAG fusion protein (full length ameloblastin with a C-terminal FLAG tag); test: co-IP; anti-FLAG agarose holds ameloblastin-FLAG, overnight, modified PBS with 2 mM CaCl2, 1 mM MgCl2, pH 4.0; Western blot with anti-CBP for amelogenin
[3] = biological target: CBP-SBP-amelogenin fusion protein (amelogenin N-terminal 92 amino acids, N92) (mouse); test: pull-down; streptavidin sepharose holds CBP-SBP-amelogenin N92, overnight, modified PBS with 2 mM CaCl2, 1 mM MgCl2, pH 4.5; Western blot with anti-FLAG for ameloblastin
[4] = biological target: CBP-SBP-amelogenin fusion protein (amelogenin N-terminal 92 amino acids, N92) (mouse); test: pull-down; streptavidin sepharose holds CBP-SBP-amelogenin N92, overnight, modified PBS with 2 mM CaCl2, 1 mM MgCl2, pH 4.0; Western blot with anti-FLAG for ameloblastin

Molecule	binding [1]	binding [2]	binding [3]	binding [4]
CBP-SBP-amelogenin fusion protein (amelogenin N-terminal 92 amino acids, N92) (mouse) (domain or fragment)	binds	binds	–	–
B1	–	–	binds	binds
